Hit rate of the full screen: of about 78,000 compounds, about 1,800 (2.3%) were called active. The shares of active, inactive and inconclusive entries below differ from those in the screen. Cut-off read from the data, not from the text of the source: active = inhibition above about 30%; inconclusive = mostly about 10% to 28%; inactive = weaker than that.
The compounds below were run against Interleukin-1 receptor-like 1 (Homo sapiens) (UniProt Q01638) (assay: blocks human ST2 binding to IL-33, primary screen, biochemical, AlphaLISA (AID 1259354)). Conditions: AlphaLISA ST2-Fc/biotin-IL-33 interaction, 1 h; at 17 µM, active compounds read high.

By UniProt entry, the sequences of proteins in these tests, tags left out. Where a name states a change or a piece, a line headed by the entry shows the natural chain unless it says otherwise.
UniProt Q01638: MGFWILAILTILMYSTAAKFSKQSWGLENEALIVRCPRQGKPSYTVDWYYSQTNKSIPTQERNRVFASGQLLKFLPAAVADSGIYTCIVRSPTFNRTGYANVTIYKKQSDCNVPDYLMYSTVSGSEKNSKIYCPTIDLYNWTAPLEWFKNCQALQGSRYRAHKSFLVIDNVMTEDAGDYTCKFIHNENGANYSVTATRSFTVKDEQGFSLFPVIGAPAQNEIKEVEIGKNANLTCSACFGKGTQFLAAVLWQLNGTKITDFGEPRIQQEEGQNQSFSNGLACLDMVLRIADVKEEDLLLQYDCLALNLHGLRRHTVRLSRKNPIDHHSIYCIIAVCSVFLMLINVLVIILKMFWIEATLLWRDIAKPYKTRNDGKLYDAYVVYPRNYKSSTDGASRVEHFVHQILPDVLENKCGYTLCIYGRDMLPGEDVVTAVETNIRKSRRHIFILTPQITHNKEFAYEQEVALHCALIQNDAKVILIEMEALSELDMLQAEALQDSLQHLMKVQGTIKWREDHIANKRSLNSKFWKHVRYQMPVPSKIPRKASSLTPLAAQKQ

Compound	inhibition
CC(Cc1ccccc1)N1CCC(=O)C2=C1CCCC2 (stereo not drawn)	inactive
O=c1c2ccccc2nc(/C=C/c2cc(Br)ccc2O)n1CCCO	inconclusive: 11%
O=C(c1ccc2c(=O)n(-c3ccccc3)c(=O)[nH]c2c1)N1CCN(c2ccccn2)CC1	inactive
CC(C)C(NC(=O)CCc1cccnc1)c1nnc2n1CCNCC2 (stereo not drawn)	inconclusive: 14%
CC1=C[C@@H](CNC(=O)Nc2ccc(Cl)cc2)[C@H](C(C)C)C[C@H]1CC(=O)N(C)Cc1cccnc1	inconclusive: 11%
COc1ccc(C(=O)N2CCCC(C(=O)Nc3ccc(-c4cccc(F)c4)cc3)C2)o1 (stereo not drawn)	inconclusive: 26%
CCc1ccc(OCC(=O)O/N=C(/N)c2ccncc2)c(Br)c1	inconclusive: 19%
CCOC(=O)c1c(NC(=O)CCCn2nc([N+](=O)[O-])cc2C)sc(C)c1C	inconclusive: 13%
Cc1nnc(Sc2cc(C(=O)NCCCN3CCCC(C)C3)c3ccccc3n2)s1 (stereo not drawn)	inconclusive: 10%
Cc1sc2nc(CNCc3cn(CCC(N)=O)c4ccccc34)cn2c1C	inconclusive: 11%
Cc1sc2ncnc(Oc3cccc4cccnc34)c2c1C	inconclusive: 23%
CCN(c1ccccc1)S(=O)(=O)c1ccc(Br)s1	inactive
COc1ncc(-c2nccn2CC(C)c2ccccc2)cn1 (stereo not drawn)	inactive
CCC(=O)N1CCc2cc(Br)cc(S(=O)(=O)NC(C)CC)c21 (stereo not drawn)	inactive
CCNC(=O)[C@@H]1C[C@@H](N)CN1C(=O)c1ccc(-c2ccccc2)[nH]1	inconclusive: 10%
CCOC(=O)Cn1nnc2sc3c(c2c1=O)CCC(C)C3 (stereo not drawn)	inconclusive: 11%
CCCC(=O)NC(c1cccs1)c1ccc2cccnc2c1O (stereo not drawn)	inconclusive: 25%
O=C(Cn1c(=O)n(-c2ccc(F)cc2)c(=O)c2sccc21)Nc1cccc(Cl)c1	inconclusive: 20%
O=C(Nc1ccc(Br)cc1)c1cccc(S(=O)(=O)Nc2ccccn2)c1	active: 42%
CCN(CC)CCNC(=O)CSc1cc(=O)n(C)c2ccccc12	inactive
COc1cc(CN2CCSCC2)ccc1O	inactive
Cc1ccc(C2=C/C(=C/c3ccc(C)c([N+](=O)[O-])c3)C(=O)O2)c(C)c1	inconclusive: 21%
Cc1cc(CN(C)Cc2cn(-c3ccc(F)cc3F)nc2-c2ccccc2C)on1	inconclusive: 25%
Cc1cc(C)nc(NC(=O)Nc2ccccc2)n1	inconclusive: 12%

Part of the list above in order of SMILES length, ascending:
Compound	inhibition
CC(C)C(NC(=O)CCc1cccnc1)c1nnc2n1CCNCC2 (stereo not drawn)	inconclusive: 14%
Cc1cc(CN(C)Cc2cn(-c3ccc(F)cc3F)nc2-c2ccccc2C)on1	inconclusive: 25%
CCNC(=O)[C@@H]1C[C@@H](N)CN1C(=O)c1ccc(-c2ccccc2)[nH]1	inconclusive: 10%

Remaining list, next part.

Compound	inhibition
CCNC(=O)Cc1ccc(-c2ccc3c(c2)OCCO3)cc1	inconclusive: 15%
CCN(CC)C(=O)[C@@H]1C[C@H](N)CN1C(=O)c1c(C)nn2c(C)cc(C)nc12	inactive
CNc1oc(-c2ccc(OC)cc2)nc1S(=O)(=O)c1ccccc1	inconclusive: 24%
Cc1cc([S-])c2n(cn[n+]2Cc2ccc(Cl)cc2Cl)n1	inconclusive: 25%
COC(=O)[C@@H]1C[C@@H](O)CN1C(=O)CCSCc1ccc(F)cc1	inconclusive: 12%
Cc1cccc2ncc(C(=O)N3Cc4cnc(CC(C)C)nc4C3)c(=O)n12	inconclusive: 10%
CCSc1nc2c(c(=O)n1-c1ccccc1)SCC2	inconclusive: 13%
CCOc1ccc(-c2nnc3cccc(Cl)n23)cc1OC	active: 41%
Cn1ccnc1Sc1ccc([N+](=O)[O-])cc1Cl	inconclusive: 10%
CCOC(=O)N1CCN(C2CCCN(C(=O)CCc3ccc(F)cc3)C2)CC1 (stereo not drawn)	inconclusive: 12%
O=C(c1csc2nc(-c3ccccc3)cn12)N1CCCCC1CCn1cccn1 (stereo not drawn)	inconclusive: 12%
CCOc1ccc2c(c1)sc(=NC(=O)c1ccc(F)cc1)n2C	inconclusive: 12%
N#Cc1c(NC(NC(=O)c2cccs2)C(=O)c2ccccc2)sc2c1CCCC2 (stereo not drawn)	inconclusive: 23%
N#C/C(=C\c1ccc(Cl)cc1)C(=O)Nc1nc2c(s1)CN(Cc1ccccc1)CC2	inconclusive: 21%
CC1=C(C(=O)OC2CCCC2)C(c2cccc3ccccc23)NC(=O)N1 (stereo not drawn)	inactive
CC(=O)Oc1ccc(N2C(=O)C3C4c5ccccc5C(C)(c5ccccc54)C3C2=O)cc1 (stereo not drawn)	inactive
c1coc(-c2nnc([C@H]3CCN(C4CCCCC4)C3)o2)c1	inconclusive: 17%
CC(Cc1c[nH]c2ccc(Cl)cc12)N=Cc1ccc(N(C)C)cc1 (stereo not drawn)	inconclusive: 11%
O=C(NCCc1ccccc1)c1ccc2nc3ccsc3c(=O)n2c1	inactive
COc1ccc(-c2nc(CN3CCS(=O)(=O)CC3)c(C)o2)cc1OC	inconclusive: 19%
CC1(C)CC(=O)C2=C(C1)c1c(ccc3ccccc13)NC2c1ccccn1 (stereo not drawn)	inactive
COc1ccc(NC(=O)Cn2nc(C)c([N+](=O)[O-])c2C)cn1	inconclusive: 13%
CC(C)NS(=O)(=O)c1cc(NC2CCCCC2)cc(C(=O)NC2Cc3ccccc3C2)c1	active: 30%
COc1ccc(CN2C[C@H](O)C[C@H]2c2nc(-c3ccc(F)cc3)no2)c(OC)c1OC	active: 47%

Compound	inhibition
N#CC(c1ccco1)N1CCN(C(C#N)c2ccco2)CC1 (stereo not drawn)	inactive
O=C(Nc1ccc(N2CCCC2)c(Cl)c1)c1ccco1	inconclusive: 29%
O=C(CN1C(=O)/C(=C\c2ccc(Cl)cc2)Sc2ccccc21)NCCN1CCOCC1	active: 30%
CC1CN(C/C=C/c2ccccc2[N+](=O)[O-])CC(C)O1 (stereo not drawn)	inconclusive: 14%
COc1ccc(-c2csc(Nc3ccc(C)c(Cl)c3)n2)cc1F	inconclusive: 18%
CCOc1ccc(C(=O)N(c2ccc(C(C)C)cc2)C2C=CS(=O)(=O)C2)cc1 (stereo not drawn)	inactive
Cc1cc(NC(=O)C(NS(=O)(=O)c2cccs2)C(C)C)ccc1Br (stereo not drawn)	inactive
Cc1ccc(C(=O)N2CCc3c(c(C(=O)N4CCNC(=O)C4)nn3CCCc3ccccc3)C2)s1	active: 30%
CC1CCN([C@@H]2[C@H](O)[C@H](CO)O[C@@H]2CNC(=O)Nc2ccccc2)CC1	inconclusive: 13%
O=C(C1CCCCC1)N1CCN(Cc2ccc3c(c2)OCO3)CC1	inactive
CCOc1ccc(C(=O)Nc2ccc(-c3nc4ncccc4o3)cc2)cc1Br	inconclusive: 19%
COc1ccc(C(=O)N[C@H]2C[C@H]3C(=O)Nc4cc(Cl)ccc4C(=O)N3C2)cc1	inconclusive: 16%
CCN(CC)C(=NS(=O)(=O)c1ccc(F)cc1)c1ccccc1	inconclusive: 12%
COc1ccc(NC2=CC(=NS(=O)(=O)c3ccc(Cl)cc3)c3ccccc3C2=O)cc1	active: 93%
C=CCn1c(=N)c(C(=O)NCC)cc2c(=O)n3ccccc3nc21	inactive
Oc1ccccc1-c1nnc2n1N=C(c1cccc(Br)c1)CS2	inconclusive: 13%
Cc1ccc(C2NC(C(=O)O)CS2)cc1[N+](=O)[O-] (stereo not drawn)	inconclusive: 11%
Brc1cccc(-c2cn3ccsc3n2)c1	inconclusive: 11%
Cc1ncc(-c2c(-c3ccccc3)ncn2CC(O)Cc2ccccc2)[nH]1 (stereo not drawn)	inactive
O=c1[nH]c2ccc(S(=O)(=O)Nc3ccc4c(c3)OCO4)cc2[nH]c1=O	inconclusive: 28%
Cc1ccc(N2CCN(C(=O)c3ccc(CS(=O)(=O)c4ccc(C)cc4)o3)CC2C)cc1 (stereo not drawn)	inactive
CCCCCCCCCCCC(=O)O[C@@]12C[C@@H](C)[C@]3(O)C4C=C(C)C(=O)[C@@]4(O)[C@H](O)[C@@]4(CO)O[C@H]4[C@H]3[C@@H]1C2(C)C (stereo partly drawn)	inconclusive: 11%
O=C(c1cc2ccccc2o1)N1CCN=C1SCc1cccc(Cl)c1	inconclusive: 14%
O=C1C=C(Nc2ccccc2)C(=O)N1c1ccccc1	inactive

As entered above:
Value for Cc1ncc(-c2c(-c3ccccc3)ncn2CC(O)Cc2ccccc2)[nH]1 (stereo not drawn) under inhibition: inactive
Value for Cc1cc(NC(=O)C(NS(=O)(=O)c2cccs2)C(C)C)ccc1Br (stereo not drawn) under inhibition: inactive

Next part.

Compound	inhibition
CCOC(=O)CSc1nc2c(sc3ccccc32)c(=O)n1CCCN1CCCC1	inconclusive: 12%
CCC1(CO)CCCN(c2ncc(C(F)(F)F)cc2Cl)C1 (stereo not drawn)	inconclusive: 26%
CN1CCN(CC(=O)N2CCCc3c2c(=O)oc2ccc(O)cc32)CC1	inconclusive: 13%
O=C(Nc1ccc(I)cc1)c1cc2ccccc2o1	inconclusive: 21%
COc1ccccc1CCC(=O)Nc1ccc2c(c1)CN(C(=O)Cc1ccn(C)c1)CC2	inconclusive: 19%
COCCCNC(=O)c1ccc(/C=C2\Sc3ccccc3N(Cc3ccc(F)cc3)C2=O)cc1	inconclusive: 22%
CSc1nsc(SC)c1C(=O)Nc1ccc(Br)cc1	inconclusive: 19%
Cc1cccn2c(=O)c3cc(C(=O)NCCCN4CCOCC4)n(C)c3nc12	inconclusive: 11%
O=C(Nc1nnc(-c2ccc(F)cc2)o1)c1ccc(S(=O)(=O)N2CCCC2)cc1	inactive
CCc1ccc(C(Nc2ccccn2)c2ccc3cccnc3c2O)cc1 (stereo not drawn)	inconclusive: 22%
O=C1S/C(=C/c2ccccc2O)C(=O)N1CNc1ccc(I)cc1	inconclusive: 19%
CCN(CC)S(=O)(=O)c1ccc(C(=O)N=c2sc3cc([N+](=O)[O-])ccc3n2C)cc1	inconclusive: 16%
Cc1ccc2nc(NCc3cccnc3)c(C=NCc3cccnc3)c(=O)n2c1	inactive
CCc1nnc(CNC(=O)C2COc3c(cccc3OC)C2)s1 (stereo not drawn)	inconclusive: 12%
CC1=C[C@@H](CN(C)CCc2ccccn2)[C@H](C(C)C)C[C@H]1Cc1nnc(C)o1	inconclusive: 12%
CCOc1ccc(-c2nc[nH]c2-c2ccccc2)cc1CO	inconclusive: 21%
COc1cccc(NC(=O)c2cccc(C)c2)c1	inactive
Cc1ccc(-n2nc3c(c2NC(=O)c2ccc(F)cc2)CS(=O)C3)cc1 (stereo not drawn)	inactive
CC(CCn1cccn1)NC(=O)c1ccc2c(c1)OCC(=O)N2 (stereo not drawn)	inactive
COc1ccccc1-c1coc2cc(OCC(=O)OC(C)C)ccc2c1=O	inconclusive: 16%
C=C1CC2C3(C)C(O)CC(=O)C(C)(C)C3C(OC(C)=O)C(OC(C)=O)C2(C)C2C(=O)OC(C)(C(=O)OC)C(=O)C12C (stereo not drawn)	inconclusive: 12%

Source: PubChem BioAssay AID1259354 (Paczesny and Yang Labs, IUPUI and University of Michigan, 2018)
